Measurements reported in US5266600A (priority 1992, dated 1993).
At least one read-out could not be matched to a standard name with certainty.

Tested on: tubulin (3XMTP)
Experiment: Tubulin polymerization assay using thrice-cycled microtubule protein (3XMTP), spectrophotometric
Assay type: biochemical, calf
Settings: 10 uM, taxol = 100; for Relative Peak: 20min
Procedure: Briefly, tubulin was purified from calf brain extracts by three cycles of polymerization at 35° C. in the presence of 1 mM GTP+2.5 mM ATP, and depolymerization at 4° C. in PM buffer pH 6.6 (0.1 M PIPES, […]) containing various concentrations of glycerol as described previously (Williams R. C. and J. C. Lee 1982 Methods in Enzymology 85: pp. 376-385). The tubulin polymerization assay was carried out using 3XMTP in PM buffer containing 0.4 M of glycerol in the presence of test-compound. The polymerization was quantitated by Shimadzu spectrophotometer (Model No. UV 2100U) at 350 nm. Effect of compound on the kinetics of tubulin polymerization was followed for 20 minutes using taxol as a positive control and DMSO as a negative control. Compound in PM buffer +0.4 M glycerol (no MTP) served as buffer (negative) controls.

CC(=O)O[C@H]1C(=O)[C@@]2(C)[C@H]([C@H](OC(=O)c3ccccc3)[C@]3(O)C[C@H](OC(=O)[C@H](O)[C@@H](NC(=O)c4ccccc4)c4ccccc4)C(C)=C1C3(C)C)[C@]1(OC(C)=O)CO[C@@H]1C[C@@H]2O [Taxol]
100%: Relative Peak (first series of Table 3) | Relative Peak (second series) | Relative Peak (third series) | Relative Slope (first series of Table 3) | Relative Slope (second series) | Relative Slope (third series)
